No constants are given. Whether binding was seen depends on the method and setting. Binding seen in cells or lysates may run through a third protein. Some entries that bind do so weakly or less than the wild type. Where a sequence is shown, tags or fusion partners need not be part of it.
T1: CDC50A-FLAG (mouse) (UniProt Q8VEK0)
T1 sequence: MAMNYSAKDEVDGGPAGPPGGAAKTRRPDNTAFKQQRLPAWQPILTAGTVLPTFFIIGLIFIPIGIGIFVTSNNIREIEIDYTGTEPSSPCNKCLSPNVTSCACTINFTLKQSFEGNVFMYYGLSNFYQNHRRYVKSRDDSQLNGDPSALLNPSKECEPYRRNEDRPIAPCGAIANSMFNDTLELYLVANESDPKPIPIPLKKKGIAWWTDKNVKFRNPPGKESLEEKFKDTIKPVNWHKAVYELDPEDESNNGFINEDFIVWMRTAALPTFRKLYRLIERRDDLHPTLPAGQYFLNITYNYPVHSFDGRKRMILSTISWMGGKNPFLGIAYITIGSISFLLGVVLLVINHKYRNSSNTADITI

B1: EGFP-ATP8B1 (protein, UniProt Q148W0 1-1251)
chain: MSTERDSETTFDEESQPNDEVVPYSDDETEDELEDQGSTVEPEQNRVNREAEKKRETFRKDCTWQVKANDRKFHEQPHFMNTKFFCIKESKYASNAIKTYKYNGFTFLPMNLFEQFKRAANFYFLILLILQAIPQISTLAWYTTLVPLLLVLGITAIKDLVDDVARHKMDKEINNRTCEVIKDGRFKIIKWKDIQVGDVIRLKKNDFIPADILLLSSSEPNSLCYVETAELDGETNLKFKMALEITDQYLQIEDNLATFDGFIECEEPNNRLDKFTGTLFWKNQSFPLDADKILLRGCVIRNTDVCHGLVIFAGADTKIMKNSGKTRFKRTKIDYLMNYMVYTIFIVLILVSAGLAIGHAYWEAQVGNYSWYLYDGENATPSYRGFLNFWGYIIVLNTMVPISLYVSVEVIRLGQSHFINWDLQMYYAEKDTPAKARTTTLNEQLGQIHYIFSDKTGTLTQNIMTFKKCCINGTIYGDHRDASQHSHSKIELVDFSWNTFADGKLAFYDHYLIEQIQSGKEPEVRQFFFLLSICHTVMVDRIDGQINYQAASPDEGALVNAARNFGFAFLARTQNTITVSELGSERTYNVLAILDFNSDRKRMSIIVRTPEGSIRLYCKGADTVIYERLHRMNPTKQETQDALDIFASETLRTLCLCYKEIEEKEFTEWNNKFMAASVASSNRDEALDKVYEEIEKDLILLGATAIEDKLQDGVPETISKLAKADIKIWVLTGDKKETAENIGFACELLTEDTTICYGEDINSLLHTRMENQRNRGGVSAKFAPPVYEPFFPPGENRALIITGSWLNEILLEKKTKRSKILKLKFPRTEEERRMRSQSRRRLEEKKEQRQKNFVDLACECSAVICCRVTPKQKAMVVDLVKRYKKAITLAIGDGANDVNMIKTAHIGVGISGQEGMQAVMSSDYSFAQFRYLQRLLLVHGRWSYIRMCKFLRYFFYKNFAFTLVHFWYSFFNGYSAQTAYEDWFITLYNVLYSSLPVLLMGLLDQDVSDKLSLRFPGLYVVGQRDLLFNYKRFFVSLLHGVLTSMVLFFIPLGAYLQTVGQDGEAPSDYQSFAVTVASALVITVNFQIGLDTSYWTFVNAFSIFGSIALYFGIMFDFHSAGIHVLFPSAFQFTGTASNALRQPYIWLTIILTVAVCLLPVVAIRFLSMTIWPSESDKIQKHRKRLKAEEQWKRRQSVFRRGVSSRRSAYAFSHQRGYADLISSGRSIRKKRSPLDAIIADGTAEYRRTVES
B2: EGFP-ATP8B2 (protein, UniProt P98199 1-1209)
chain: MTVPKEIPEKWARAGAPPSWSQKKPSWGTEEERRARANDREYNEKFQYASNCIKTSKYNIVTFLPVNLFEQFQEVANTYFLFLLILQLIPQISSLSWFTTIVPLVLVLTITAVKDATDDYFRHKSDNQVNNRHSQVLINGVLQQEQWMNVCVGDIIKLENNQFVAADLLLLSSSEPHGLCYIETAELDGETNMKVRQAIPVTSELGDVSQLARFDGEVICEPPNNKLDKFSGTLYWKENKFPLSNQNMLLRGCVLRNTEWCFGLVIFAGPDTKLMQNSGRTKFKRTSIDRLMNTLVLWIFGFLVCMGVILAIGNAIWEHEVGTRFQVYLPWDEAVDSAFFSGFLSFWSYIIILNTVVPISLYVSVEVIRLGHSYFINWDKKMFCMKKRTPAEARTTTLNEELGQVEYIFSDKTGTLTQNIMVFNKCSINGHSYGDVFDVLGHKAELGERPEPVDFSFNPLADKKFLFWDSSLLEAVKMGDPHTHEFFRLLSLCHTVMSEEKNEGELYYKAQSPDEGALVTAARNFGFVFRSRTPKTITVHELGTAITYQLLAILDFNNIRKRMSVIVRNPEGKIRLYCKGADTILLDRLHPPTQELLSSTTDHLNEYAGDGLRTLVLAYKDLDEEYYEEWARRRLQASLAQDSREDRLASIYEEVESDMMLLGATAIEDKLQQGVPETIALLTLANIKIWVLTGDKQETAVNIGYSCKMLTDDMTEVFVVTGHTVLEVREELRKARKKMVDSSHAVGNGFTYQGNLSSSKLTSVLEAVAGEYALVINGHSLAHALEADMELEFLETACACKAVICCRVTPLQKAQVVELVKKYKKAVTLAIGDGANDVSMIKTAHIGVGISGQEGIQAVLASDYSFSQFKFLQRLLLVHGRWSYLRMCKFLCYFFYKNFAFTMVHFWFGFFCGFSAQTVYDQYFITLYNIVYTSLPVLAMGVFDQDVPEQRSMEYPKLYEPGQLNLLFNKREFFICIAQGIYTSVLMFFIPYGVFAEATRDDGTQLADYQSFAVTVATSLVIVVSVQIGLDTGYWTAINHFFIWGSLAVYFAILFAMHSNGLFDMFPNQFRFVGNAQNTLAQPTVWLTIALTTAVCIMPVVAFRFLRLSLKPDLSDTVRYTQLVRKKQKAQHRCMRRVGRTGSRRSGYAFSHQEGFGELIMSGKNMRLSSLALSSFSTRSSSSWIESLRRKKSDSANSPSGGAEKPLKG
B3: EGFP-ATP11A (protein, UniProt P98197 1-1187)
chain: MDCSLLRTLVRRYCAGEENWVDSRTIYVGHKEPPPGAEAYIPQRYPDNRIVSSKYTFWNFIPKNLFEQFRRIANFYFLIIFLVQLIIDTPTSPVTSGLPLFFVITVTAIKQGYEDWLRHKADNAMNQCPVHFIQHGKLVRKQSRKLRVGDIVMVKEDETFPCDLIFLSSNRADGTCHVTTASLDGESSHKTHYAVQDTKGFHTEADVDSLHATIECEQPQPDLYKFVGRINVYNDLNDPVVRPLGSENLLLRGATLKNTEKIFGVAIYTGMETKMALNYQSKSQKRSAVEKSMNTFLIVYLCILVSKALINTVLKYVWQSEPFRDEPWYNEKTESERQRNLFLRAFTDFLAFMVLFNYIIPVSMYVTVEMQKFLGSYFITWDEDMFDEEMGEGPLVNTSDLNEELGQVEYIFTDKTGTLTENNMAFKECCIEGHVYVPHVICNGQVLPDSSGIDMIDSSPGVCGREREELFFRAICLCHTVQVKDDHCGDDVDGPQKSPDAKSCVYISSSPDEVALVEGVQRLGFTYLRLKDNYMEILNRENDIERFELLEVLTFDSVRRRMSVIVKSTTGEIYLFCKGADSSIFPRVIEGKVDQVRSRVERNAVEGLRTLCVAYKRLEPEQYEDACRLLQSAKVALQDREKKLAEAYEQIEKDLVLLGATAVEDRLQEKAADTIEALQKAGIKVWVLTGDKMETASATCYACKLFRRSTQLLELTTKKLEEQSLHDVLFDLSKTVLRCSGSMTRDSFSGLSTDMHDYGLIIDGAALSLIMKPREDGSSSGNYRELFLEICRNCSAVLCCRMAPLQKAQIVKLIKFSKEHPITLAIGDGANDVSMILEAHVGIGVIGKEGRQAARNSDYAIPKFKHLKKMLLVHGHFYYIRISELVQYFFYKNVCFIFPQFLYQFFCGFSQQTLYDTAYLTLYNISFTSLPILLYSLMEQHVGIDVLKRDPTLYRDIAKNALLRWRVFIYWTFLGVFDALVFFFGAYFIFENTTVTINGQMFGNWTFGTLVFTVMVLTVTLKLALDTHYWTWINHFVIWGSLLFYIAFSLLWGGVIWPFLSYQRMYYVFISMLSSGPAWLGIILLVTVGLLPDVLKKVLCRQLWPTATERTQNIQHQDSISEFTPLASLPSWGAQGSRLLAAQCSSPSGRVVCSRWESEECPVLPLHPGLPHKARYGCCRSSLEMPT
B4: EGFP-ATP11B (protein, UniProt Q6DFW5 1-1175)
chain: MWRWVRQQLGFDPPHQSDTRTIYIANRFPQNGLYTPQKFIDNRIISSKYTIWNFVPKNLFEQFRRVANFYFLIIFLVQLMIDTPTSPITSGLPLFFVITVTAIKQGYEDWLRHNSDNEVNGAPVYVVRSGGLVKTRSKNIRVGDIVRIAKDEIFPADLVLLSSDRLDGSCHVTTASLDGETNLKTHVSVPETAVLQTVANLDSLIAVIECQQPEADLYRFMGRMIITQQMEEIVRPLGPESLLLRGARLKNTKEIFGVAVYTGMETKMALNYKSKSQKRSAVEKSMNTFLIIYLIILISEAIISTILKYTWQAEEKWDEPWYNQKTEHQRNSSKILRFISDFLAFLVLYNFIIPISLYVTVEMQKFLGSFFIGWDLDLYHEESDQKAQVNTSDLNEELGQVEYVFTDKTGTLTENEMQFRECSINGLKYQEINGKLVPEGPSPDSTEGEVPFLGSLSHLSNSAHLTATSLRTSPESETELIKEHDLFFKAVSLCHTVQISNVQTDGIGDGPWQPNLAPAQLEYYASSPDEKALVEAAARAGIIFVGISEETMEVKVLGRLERYKLLHILEFDSDRRRMSVIVQAPSGEKLLFAKGAESSILPKCIGGEIAKTRIHVDEFALKGLRTLCIAYRQFTAKEYEDVDRRLFEARTALQHREEKLADAFQYIEKDLILLGATAVEDRLQDKVRETIEALRMAGIKVWVLTGDKHETAVSVSLSCGHFHRTMNILELINQKSDSGCAEQLRQLARRITEDHVIQHGLVVDGTSLSLALREHEKLFMEVCRNCSAVLCCRMAPLQKAKVIRLIKISPEKPITLAVGDGANDVSMIQEAHVGIGIMGKEGRQAARNSDYAIARFKFLSKLLFVHGHFYYIRIATLVQYFFYKNVCFITPQFLYQFYCLFSQQTLYDSVYLTLYNICFTSLPVLIYSLVEQHIDPHVLQSKPTLYRDISKNGLLSIKAFLYWTVLGFSHAFIFFFGSYFLVGKDTSLLGNGQMFGNWTFGTLVFTVMVITVTVKMALETHFWTWINHLVTWGSIIFYFIFSLFYGGILWPFLGSQNMYFVFIQLLSSGSAWFAILLMVVTCLFIDVVKKVFDRQLHPTSTEKAQLAEAHSSVKCLDSVCCFPGETPCASVGRMLERVIGRCSPNHISRLWNASDPFYTNDRSILTLSPMDSSTC
B5: EGFP-ATP11C (protein, UniProt Q9QZW0 1-1129)
chain: MFRRTLNRLCAGEEKRVGTRTVFVGNHPISGTEPYIAQRFCDNRIVSSKYTLWNFLPKNLFEQFRRIANFYFLIIFLVQVTVDTPTSPVTSGLPLFFVITVTAIKQGYEDWLRHRADNEVNKSAVYIIENAKRVRKESEKIKVGDVVEVQANETFPCDLILLSSCTTDGTCYVTTASLDGESNCKTHYAVRDTIALCTAESIDNLRATIECEQPQPDLYRFVGRISIYSNSIEAVARSLGPENLLLKGATLKNTKKIYGVAVYTGMETKMALNYQGKSQKCSAVEKSINAFLIVYLFILLTKAAVCTTLKYVWQSSPYNDEPWYNQKTQKERETFQVLKMFTDFLSFMVLFNFIIPVSMYVTVEMQKFLGSFFISWDKDFFDEEINEGALVNTSDLNEELGQVDYVFTDKTGTLTENSMEFIECCIDGHKYKGTTQEVDGLSQTDGPLAYFDKADKNREALFLRALCLCHTVEMKTNDDVDGPVEGAGFTYISSSPDEIALVKGAKRFGFTFLGNQNGYIRVENQRKEIEEYELLHTLNFDSVRRRMSVIVRTQKGDILLFCKGADSSIFPRVHSHQIELTKDHVERNAMDGYRTLCVAFKEIPPDDFERINAQLVEAKMALQDREEKLEKVFDEIETNMNLIGATAVEDKLQDQAAETIEALHAAGLKVWVLTGDKMETAKSTCYACRLFQTNTELLELTTKTIEESERKEDRLHELLIEYRKKLLHEFPKSTRSLKKAWTEHQEYGLIIDGSTLSLILNSSQDCSSNNYKSIFLQICMKCTAVLCCRMAPLQKAQIVRMVKNLKGSPITLSIGDGANDVSMILESHVGIGIKGKEGRQAARNSDYSVPKFKHLKKLLLVHGHLYYVRIAHLVQYFFYKNLCFILPQFLYQFFCGFSQQPLYDAAYLTMYNICFTSLPILAYSLLEQHINIDTLTADPRLYMKITGNAMLQLGPFLHWTFLAAFEGTVFFFGTYFLFQTSSLEDNGKIYGNWTFGTIVFTVLVFTVTLKLALDTRFWTWINHFVIWGSLAFYVFFSFFWGGIIWPFLKQQRMYFVFAQMLCSVSTWLAIILLIFISLFPEILLIVVKNVRRRSARRNLSCRRASDSLSARPSVRPLLLRTFSDESNIL

Target: T1, CDC50A-FLAG (mouse)
Experiment: co-IP; HEK293 cells co-transfected with pEGFP-P4-ATPases and pCDC50A-FLAG; lysis in 150 mM NaCl, 50 mM Tris pH 7.4, 1% Triton X-100; anti-FLAG M2 affinity gel 30 min on ice; washed with 0.1% Triton X-100/TBS; eluted with FLAG peptide; immunoblot

binding, binds:
B1
B2
B3
B4
B5

Reference: PMC5967302
